PMC9943068
Residue numbers refer to the chain shown, from its start. Results are given in words; binding and its absence hold for the method and conditions named. Binding seen in cells or lysates may run through a third protein. For some of these results: A result given as binding can be weak or reduced; the word gives no strength. For some of these results: Where a sequence is shown, tags or fusion partners need not be part of it. Blank lines part the entries; values can stand above or below the molecule they belong to.

Key:
[1] = target: T1, PAF15, endogenous Xenopus, non-ubiquitylated (Xenopus laevis (endogenous in egg extracts)) (UniProt Q5HZL4); experiment: co-IP; antibodies on Protein A agarose incubated with Xenopus egg extracts 2 hr at 4°C; endogenous proteins; washed with CPB, 2% sucrose, 0.1% Triton X-100; immunoblotting
T1 sequence: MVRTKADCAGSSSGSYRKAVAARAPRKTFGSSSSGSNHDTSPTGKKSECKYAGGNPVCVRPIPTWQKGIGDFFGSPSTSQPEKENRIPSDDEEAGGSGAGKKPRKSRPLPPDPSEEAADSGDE

[2] = target: T2, GST-PAF15 P/AxxS mutant (S79A/S97A; SA) (Xenopus) (UniProt Q5HZL4); experiment: pull-down; GST or GST-PAF15 proteins immobilized on Glutathione Sepharose 4B, incubated with interphase egg extracts 2 hr at 4°C; washed with CPB, 2% sucrose, 0.1% Triton X-100; immunoblotting; only the target purified
T2 sequence: T1 sequence with S79A, S97A

[3] = target: T3, GST-PAF15 triple mutant (SAKA) (Xenopus) (UniProt Q5HZL4); experiment: as above
T3 sequence: T1 sequence with S79A, S97A, K101A, K105A

[4] = target: T4, GST-PAF15 wild-type (Xenopus PAF15) (Xenopus) (UniProt Q5HZL4); experiment: as above
T4 sequence: T1 sequence

[5] = target: T5, GST-PAF15 KxxxK mutant (K101A/K105A; KA) (Xenopus) (UniProt Q5HZL4); experiment: as above
T5 sequence: T1 sequence with K101A, K105A

[6] = target: USP7 (Ubiquitin-Specific Protease 7), endogenous Xenopus (Xenopus laevis (endogenous in egg extracts)); experiment: co-IP; antibodies on Protein A agarose incubated with Xenopus egg extracts 2 hr at 4°C; endogenous proteins; washed with CPB, 2% sucrose, 0.1% Triton X-100; immunoblotting
[7] = target: rUSP7-3xFLAG wild type (Xenopus USP7) (Xenopus); experiment: pull-down; rUSP7-3xFLAG proteins bound to anti-FLAG M2 resin, incubated with Xenopus egg extracts diluted fivefold in CPB with 2% sucrose, 2 hr at 4°C; immunoblotting; only the target purified
[8] = target: rUSP7-3xFLAG UBL1-5 domain (residues 583-1124) (Xenopus); experiment: as above
[9] = target: rUSP7-3xFLAG TRAF domain (residues 1-208) (Xenopus); experiment: as above
[10] = target: rUSP7-3xFLAG W167A (Xenopus); experiment: as above
[11] = target: rUSP7-3xFLAG catalytic domain (residues 209-582) (Xenopus); experiment: as above
[12] = target: rUSP7-3xFLAG with the UBL domain deleted (Xenopus); experiment: as above
[13] = target: rUSP7-3xFLAG 3A (D780A/E781A/D786A) (Xenopus); experiment: as above

- binding [1]: binds
- binding [2]: binds
- binding [3]: no binding
- binding [4]: binds
- binding [5]: binds
Molecule: USP7 (Ubiquitin-Specific Protease 7), endogenous Xenopus (enzyme)

- binding [6]: binds
- binding [7]: binds
- binding [8]: no binding
- binding [9]: binds
- binding [10]: no binding
- binding [11]: no binding
- binding [12]: binds
- binding [13]: binds
B1: PAF15, endogenous Xenopus, non-ubiquitylated (protein, UniProt Q5HZL4 1-123)
chain: T1 sequence
